Some results were stated once for a whole list of compounds, not compound by compound.
System: human rhinovirus Type A Strain 16 (HRVA16) in HeLa Ohio cells
Assay: Cytopathic Effect (CPE) Assay, ATP-depletion in infected HeLa Ohio cells
Type: cell-based
Conditions: HRVA16 at MOI of 1, 33° C. for 2 days, CellTiter-Glo
Method: c) Cytopathic Effect (CPE) Assay Protocol
The in vitro inhibition of PI4 KB activity was determined by analysis of the inhibition of ATP-depletion in HeLa Ohio cells in response to infection with human rhinovirus Type A Strain 16 (HRVA16). ATP levels were determined using CellTiter-GLO reagent from Promega. Compounds that inhibit PI4 KB are also potent inhibitors of human rhinoviruses and are able to protect HeLa Ohio cells from CPE induced by viral infection and replication. Protected cells remain viable following viral infection and therefore have greater ATP levels.
Compounds were dissolved in 100% DMSO to a concentration of 3 mM and subsequent dilutions were prepared in 100% DMSO using a 1:3 serial step dilution. A 0.5 μL stamp from an 10-point titration was transferred to a white 96 well Greiner tissue culture flat bottom plate (655083). A 0.5 μL stamp of 100% DMSO was stamped into columns 11 and 12 of the plate, ensuring a final assay DMSO concentration of 0.33% across the plate and a compound top final assay concentration of 10 μM.
HeLa Ohio cells were cultured at 37° C., 5% CO2 in media (DMEM supplemented with 10% Australian origin foetal bovine serum and 2 mM glutamax). Cells were passaged when confluency reached >80%. For the assay, cells were grown to 80-90% confluency before detachment.
Cells were detached for the assay by washing with PBS and detached using 3 mL TrypLE Express for […] at 37° C. Detached cells were mixed with 7 mL of media and centrifuged at 300 g for 5 min. The cell pellet was resuspended in 50 mL media and counted on a Beckman Coulter ViCell. Cells were diluted to 6.6×10^4 cells/mL and some of the cell volume was removed into a new tube to be used as a column 12 control. HRVA16 stock was added to the remaining cell suspension at the appropriate dilution for the virus stock to achieve an MOI of 1.
150 μL of the cell+virus suspension was added per well to columns 1-11 using a Multidrop Combi. 150 μL of the separate cell suspension was added per well to columns 12 using a multichannel pipette. Assay plates were sealed and incubated at 33° C., 5% CO2 for 2 days. After 2 days, assay plates were removed from the incubator and allowed to equilibrate to room temperature. 60 μL of CellTiter-Glo reagent was added to all wells using a Thermo Scientific Multidrop Combi. Plates were incubated at room temperature for 20 min before reading on an a Perkin Elmer Envision (Settings: Gripper height 2.5, Fixed measurement height (mm) 6.5, Distance between plate and detector 0, Measurement time (s) 0.1, Glow (ct2) correction factor (0%)).
The inhibitory effect of the compounds on the PI4 KB activity was evaluated by the IC50 of the response relative to the high (no virus, column 12) and low (virus+no inhibitor, column 11) controls by fitting to a four parameter dose response equation.

## CCC(CO)c1cc(NCc2cccc(-c3nccn3C)c2)n2nc(C)c(-c3ccc(OC)c(S(=O)(=O)CCO)c3)c2n1 (centres unmarked) [Compound 86, 2-(3-(3-((2-Hydroxyethyl)sulfonyl)-4-methoxyphenyl)-2-methyl-7-((3-(1-methyl-1H-imidazol-2-yl)benzyl)amino)pyrazolo[1,5-a]pyrimidin-5-yl)butan-1-ol]
  mean pIC50: greater than or equal to 8.4
Listed as compound 86
  mean pIC50: ≥ 7.6

— patent US11649238B2, “Substituted pyrazolo[1,5-a]pyrimidines as PI4K inhibitors” (GLAXOSMITHKLINE INTELLECTUAL PROPERTY DEVELOPMENT LIMITED, priority 2018, dated 2023)
